Laboratory results published in paper PMC9652315.

The chains behind the UniProt entries cited, without tags or fusion partners.
UniProt P60953: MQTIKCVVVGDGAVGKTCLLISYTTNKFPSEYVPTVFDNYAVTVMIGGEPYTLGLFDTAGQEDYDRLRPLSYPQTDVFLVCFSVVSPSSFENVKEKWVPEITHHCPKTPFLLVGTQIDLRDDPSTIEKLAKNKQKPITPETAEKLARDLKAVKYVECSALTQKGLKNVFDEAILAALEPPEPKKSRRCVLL

Biological target: T1, pTINCR-HA
T1 sequence: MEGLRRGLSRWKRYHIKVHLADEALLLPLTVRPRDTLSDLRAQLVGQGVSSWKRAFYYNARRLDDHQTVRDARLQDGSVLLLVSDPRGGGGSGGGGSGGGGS
Experiment: affinity purification with mass spectrometry; 3 mg lysate (50 mM Tris-HCl pH 7.5-8, 150 mM NaCl, 1% Triton X-100) immunoprecipitated with monoclonal HA-tag antibody overnight, Protein A magnetic beads, eluted with HA peptide; LC-MS; CRAPome analysis

With CDC42 (from UniProt P60953 1-191) the binding was “binds”.

Results are given in words; binding and its absence hold for the method and conditions named. Binding seen in cells or lysates may run through a third protein. A yes stands for co-enrichment or nearness to the bait. Other partners may have been found. Sequences can lack the tags named with a protein.
